# PubChem BioAssay AID1487 (National Center for Advancing Translational Sciences (NCATS), 2009)
# Some of the results follow. Further columns of the screen follow, without active or inactive calls. Most of these compounds were active or inconclusive in the main read-out, so they are no random draw. Potencies come from curve fits of mixed quality, noted in brackets.
# Test: qHTS Assay for Modulators of Lamin A Splicing
# Details: HeLa LMNA splicing GFP/RFP minigene ratio, 48 h
# In short: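 S3 HeLa stable clones carrying a lamin A-EGFP splicing minigene plus DsRed2 were seeded at 600 cells/well in Opti-MEM with 2% FBS, pin-dosed and incubated 48 h at 37°C. Acumen cytometry (488 nm) gave the GFP/RFP total-intensity ratio.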
# [1] = measured here: GFP splicing reporter channel
# [2] = measured here: RFP viability control channel
compound,measurement,setting,value
CCc1c(C(=O)OC)ncc2[nH]c3cc(OC)c(OC)cc3c12,AC50,[1],"14100 nM [falling, partial curve]"
same,AC50,[2],"3.98 nM [falling, full curve, poor fit]"
c1ccc(CNc2ncnc3nc[nH]c23)cc1,AC50,[1],"1120 nM [falling, single point]"
same,AC50,[2],"3160 nM [falling, single point]"
O=C1Nc2ccc(Cl)cc2C(c2ccccc2)=NC1O (stereo not given),AC50,[1],"0.891 nM [falling, full curve, poor fit]"
same,AC50,[2],"447 nM [falling, partial curve, poor fit]"
Cc1ccc(-c2nnc(C)c(N3CCCC3)n2)cc1,AC50,[2],"4470 nM [falling, single point]"
C#CCOc1cc(C2C3=C(COC3=O)Nc3cc4c(cc32)OCO4)ccc1OC (stereo not given),AC50,[1],"1260 nM [falling, full curve, poor fit]"
same,AC50,[2],"1260 nM [falling, full curve, poor fit]"
CN[C@@H](C)[C@H]1CC[C@@H](N)[C@@H](O[C@@H]2[C@@H](O)[C@@H](O[C@H]3OC[C@@](C)(O)[C@@H](NC)[C@@H]3O)[C@H](N)C[C@@H]2N)O1 (tested in a mixture with another compound),AC50,[1],"2240 nM [falling, single point]"
same,AC50,[2],"1000 nM [falling, partial curve, poor fit]"
CN1[C@H]2CC(OC(=O)[C@H](CO)c3ccccc3)C[C@H]1[C@H]1O[C@H]12 (stereo not given in full),AC50,[1],"0.794 nM [falling, full curve, poor fit]"
same,AC50,[2],"11200 nM [falling, partial curve, poor fit]"
FC(F)(F)c1ccc2c(c1)N(CCCN1CCN(CCCl)CC1)c1ccccc1S2,AC50,[2],"15800 nM [rising, partial curve, poor fit]"
CCC(=O)C1=C(c2cccc([N+](=O)[O-])c2)N(C(=O)CC)n2c(nnc2C2CCCCC2)S1,AC50,[1],"708 nM [rising, partial curve, poor fit]"
same,AC50,[2],"4470 nM [rising, partial curve]"
O=C(CCC1CCCC1)c1c(O)c2ccccc2oc1=O,AC50,[1],"35500 nM [rising, single point]"
same,AC50,[2],"25100 nM [rising, partial curve]"
O=C1NC(=O)C(=Cc2ccc(OCC(=O)N3CCOCC3)cc2)C(=O)N1,AC50,[1],"158 nM [falling, single point]"
Cc1ccc(O)c(CN2CCN(c3ccccc3)CC2)c1,AC50,[2],"31600 nM [rising, single point]"
CC[N+](CC)(CC#CCO)CC#Cc1ccccc1,AC50,[1],"10000 nM [falling, single point]"
same,AC50,[2],"17.8 nM [falling, partial curve, poor fit]"
COc1cc2c(c(OC)c1OC)-c1ccc(O)c(=O)cc1[C@H](N)CC2,AC50,[1],"63.1 nM [falling, full curve, poor fit]"
CCOC(=O)c1sc(N=Nc2c(O)[nH]c(=O)[nH]c2=O)c(C(=O)OCC)c1C,AC50,[2],"28.2 nM [falling, full curve, poor fit]"
Cc1cccc(OCC(=O)N2CCN(Cc3ccc4c(c3)OCO4)CC2)c1,AC50,[1],"158 nM [falling, full curve, poor fit]"
CCOc1ccc(CC2C(=O)NC(=O)N(c3ccc(CC)cc3)C2=O)cc1 (stereo not given),AC50,[1],"5620 nM [rising, single point]"
same,AC50,[2],"5620 nM [rising, single point]"
COc1cccc(C(=O)C2CCCN(Cc3ccon3)C2)c1 (stereo not given),AC50,[2],"251 nM [falling, full curve, poor fit]"
C[C@H]1O[C@H]1P(=O)(O)O,AC50,[2],"8.91 nM [falling, full curve, poor fit]"
CCN(CC)C(=O)N[C@@H]1C=C2c3cccc4[nH]cc(c34)C[C@H]2N(C)C1,AC50,[2],"3.16 nM [rising, full curve, poor fit]"
Cc1ccc(-n2c(/C=C/c3cc(Br)cs3)nc3ccccc3c2=O)cc1,AC50,[2],"10000 nM [rising, single point]"
N[C@H]1C[C@H]1c1ccccc1,AC50,[1],"6310 nM [falling, single point]"
same,AC50,[2],"14100 nM [falling, single point]"
COc1ccc(C(CN(C)C)C2(O)CCCCC2)cc1 (stereo not given),AC50,[2],"2 nM [falling, full curve, poor fit]"
CC(C)C(=O)Nc1ccc([N+](=O)[O-])c(C(F)(F)F)c1,AC50,[1],"44.7 nM [falling, full curve]"
same,AC50,[2],"79.4 nM [falling, full curve]"
COc1cc(/C=C/C(=O)c2c(O)n(CCc3ccccc3)c(=O)[nH]c2=O)ccc1O,AC50,[1],"35500 nM [falling, single point]"
same,AC50,[2],"3550 nM [rising, partial curve, poor fit]"
O=c1c2ccccc2nc(/C=C\c2ccccc2F)n1-c1ccc(O)cc1,AC50,[1],"35500 nM [falling, single point]"
CN1CCN(S(=O)(=O)c2cnc(Cl)c(Br)c2)CC1,AC50,[2],"20000 nM [rising, single point]"
CC(=O)Nc1ccc(N=Cc2c(O)n(Cc3ccco3)c(=O)[nH]c2=O)cc1,AC50,[1],"5010 nM [falling, single point]"
same,AC50,[2],"5010 nM [falling, partial curve]"
CCOc1ccc(-n2c(-c3cccs3)nc3ccccc3c2=O)cc1,AC50,[2],"708 nM [falling, full curve]"
CCN1C(=O)c2ccccc2Sc2ccc(C(=O)N3CCC4(CC3)OCCO4)cc21,AC50,[1],"12600 nM [rising, single point]"
same,AC50,[2],"12600 nM [rising, partial curve]"
CCOC(=O)CC(NC(=O)C(Cc1ccc(N(CCCl)CCCl)cc1)NC(C)=O)C(=O)OCC (stereo not given),AC50,[1],"3980 nM [falling, full curve]"
same,AC50,[2],"3160 nM [falling, full curve]"
CNC(=O)Oc1ccc2c(c1)[C@]1(C)CCN(C)[C@@H]1N2C,AC50,[2],"3.98 nM [rising, full curve, poor fit]"
Cc1cc(-n2c(/C=C/c3ccc(Br)s3)nc3ccccc3c2=O)ccc1Br,AC50,[1],"2000 nM [rising, partial curve]"
same,AC50,[2],"501 nM [rising, full curve, poor fit]"

# Random excerpt: two records from the list.
compound,measurement,setting,value
CCOC(=O)CC(NC(=O)C(Cc1ccc(N(CCCl)CCCl)cc1)NC(C)=O)C(=O)OCC (stereo not given),AC50,[2],"3160 nM [falling, full curve]"
CCC(=O)C1=C(c2cccc([N+](=O)[O-])c2)N(C(=O)CC)n2c(nnc2C2CCCCC2)S1,AC50,[2],"4470 nM [rising, partial curve]"
